# Data: PubChem BioAssay AID504467 (National Center for Advancing Translational Sciences (NCATS), 2011)
# The campaign covered roughly 330,000 compounds. About 7,700 (2.3%) were called active. The shares of active, inactive and inconclusive entries below differ from those in the screen. Calls come from the whole dose curve; as a rule, active = well fitted inhibition curve with a large enough effect; inconclusive = small, poorly fitted or top-dose-only effect, or effect the other way; inactive = flat fitted curve, though single readings scatter. Where the call is inconclusive, the potency comes from a doubtful curve fit.
# Test: qHTS screen for small molecules that inhibit ELG1-dependent DNA repair in human embryonic kidney (HEK293T) cells expressing luciferase-tagged ELG1; note: nearly all actives have a fitted effect of over 55% in size
# Conditions: HEK293T ELG1-luciferase reporter, luminescence, 16 h, DNA damage induced by 5-fluorouridine; series mostly up to 46.1 µM
# Procedure, shortened: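 Quantitative HTS, concentration-response format. 2,000 cells/well co-treated with 5-fluorouridine and compound, 16 hr in 5% CO2 at 37 °C; ONE-Glo luminescence read after 30 min.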
# Potency is the fitted concentration of half-maximal effect.
row,SMILES,Potency
1,CCOC(=O)c1c(-c2cccc([N+](=O)[O-])c2)csc1NC(=O)CCCOc1ccccc1OC,"inconclusive: 29.1 µM [inhibitor, single point]"
2,Nc1c(-c2cccc(Cl)c2)cnn1-c1cccc([N+](=O)[O-])c1,"inconclusive: 18.4 µM [inhibitor, partial curve, poor fit]"
3,COCCN(C(=O)CSc1n[nH]c(-c2ccccc2)n1)c1c(N)n(Cc2ccccc2)c(=O)[nH]c1=O,inactive
4,NC(=O)c1nsc(C(=O)N(c2ccccc2)C(C(=O)NC2CCCC2)c2ccc3ncccc3c2)c1N (stereo not drawn),"inconclusive: 11.6 µM [inhibitor, partial curve]"
5,O=C(CN1CC(=O)Oc2ccccc21)OCC(=O)c1ccc(F)cc1,"inconclusive: 5.17 µM [activator, partial curve, poor fit]"
6,O=C(NC1CCCC1)C(c1ccco1)N(C(=O)c1ccco1)c1ccccc1 (stereo not drawn),inactive
7,COc1ccc(/C=C/C(=O)NC(=S)Nc2ccccc2)cc1OC,"inconclusive: 29.1 µM [activator, single point]"
8,Cc1ccc2c(c1)Cc1nc3ccccc3nc1-2,"inconclusive: 1.64 µM [activator, partial curve]"
9,CCNc1nc(SCC(=O)OC)nc(N(C)C)n1,"inconclusive: 2.91 µM [activator, partial curve, poor fit]"
10,Cc1ccccc1OCC(=O)NC1=NCCS1,"inconclusive: 10.3 µM [activator, partial curve]"
11,CCn1c(SCC(=O)NC2CCCCC2C)nnc1-c1ccc(OC)cc1 (stereo not drawn),"inconclusive: 20.6 µM [inhibitor, single point]"
12,CCOC(=O)N1CCN(S(=O)(=O)c2ccc(C(=O)N(CCN(C)C)c3nc4ccc(Cl)cc4s3)cc2)CC1,"inconclusive: 18.3 µM [activator, single point]"
13,Cc1ccc(OCC(=O)c2c(O)c3ccccc3oc2=O)cc1C,"inconclusive: 0.231 µM [activator, single point]"
14,CCCn1c(=O)[nH]c(=O)c2c1nc(-c1ccccc1)n2CCN1CCOCC1,"inconclusive: 23.1 µM [activator, partial curve, poor fit]"
15,O=C(O)c1ccc(N/N=C/C=C/c2ccccc2[N+](=O)[O-])cc1,"inconclusive: 9.2 µM [activator, partial curve]"
16,CCOc1ccc(N2C(=O)CC(Sc3nnnn3-c3ccccc3)C2=O)cc1 (stereo not drawn),inactive
17,C/C(=N\NC(=O)c1ccc2nc[nH]c2c1)c1ccc([N+](=O)[O-])cc1,inactive
18,O=C(O)c1ccc(NCc2nc3ccccc3n2Cc2ccccc2)cc1,inactive
19,COc1ccc(C(=O)NC2CCN(CC(=O)Nc3c(C)cccc3C)CC2)cc1OC,inactive
20,COc1ccc(C(=O)Nc2cc(C)on2)cc1S(=O)(=O)N1CC(c2ccccc2)CC1=O (stereo not drawn),inactive
21,Brc1c(CSc2nnc(-c3ccco3)o2)nc2ccccn12,"inconclusive: 16.4 µM [activator, partial curve]"
22,CCOc1nc(NC(=O)NS(=O)(=O)c2cccc(Cl)c2)nc(-c2ccccc2)n1,"inconclusive: 29.1 µM [activator, single point]"
23,CCOC(=O)c1oc2ccc(CNC(C)(C)C)c(Cl)c2c1C,"inconclusive: 16.4 µM [activator, partial curve, poor fit]"

row,SMILES,Potency
1,COc1cccc(-c2c(C(=O)N/N=C(\C)c3ccco3)nnn2-c2nonc2N)c1,inactive
2,Cc1cc(C)cc(-c2nc(-c3ccncc3)no2)c1,"inconclusive: 16.4 µM [activator, partial curve]"
3,COc1ccc(-c2nc(CNS(=O)(=O)c3cc(OC)ccc3OC)cs2)cc1,active: 16.4 µM
4,NNc1nc(Nc2ccccc2)nc(N2CCCCC2)n1,inactive
5,COc1ccc2[nH]c3c(c2c1)CCN1C(=O)N([C@@H](C)C(=O)NCc2ccccc2OC)C(=O)[C@]31C,inactive
6,OC(CNCc1ccccc1)(c1ccc(F)cc1)c1ccc(F)cc1,inactive
7,OCC1CCCN(Cc2cn(Cc3ccccc3)nc2-c2cc3ccccc3o2)C1 (stereo not drawn),inactive
8,Cc1ccc2cc(C#N)c(SCC(=O)NCc3ccco3)nc2c1,"inconclusive: 23.1 µM [activator, single point]"
9,CCCCN(C(=O)c1ccc(C)cc1)c1c(N)n(CCC)c(=O)[nH]c1=O,inactive
10,O=C(CCC(=O)OCC(=O)c1ccc(-c2ccccc2)cc1)Nc1cccc2cccnc12,inactive
11,Cc1ccc2c(CC(=O)N3CCc4ccccc43)coc2c1,"inconclusive: 10 µM [activator, partial curve]"
12,Cc1cc(C(=O)CN2CCCC(C)C2)c(C)n1-c1ccc(F)cc1 (stereo not drawn),"inconclusive: 16.4 µM [activator, partial curve]"
13,NC(=O)c1ccc(N2CCC(C(N)=O)CC2)c([N+](=O)[O-])c1,inactive
14,COc1ccc(C(=O)NCC2CCCN2S(=O)(=O)c2cccs2)cc1 (stereo not drawn),"inconclusive: 8.2 µM [activator, single point]"
15,Cc1ccc(NC(=O)C2CCN(S(=O)(=O)c3ccc4ccccc4c3)CC2)nc1,"inconclusive: 3.26 µM [activator, partial curve]"
16,COc1ccccc1C#Cc1ccc2c(=O)c3ccccc3n(C)c2c1,"inconclusive: 14.6 µM [inhibitor, partial curve, poor fit]"
17,CC1CCN(C(=O)c2cc3c(ccc4ccccc43)o2)CC1,"inconclusive: 1.46 µM [activator, full curve]"
18,COc1ccc(-c2ccc(SCC(=O)N3CCOCC3)nn2)cc1,"inconclusive: 18.4 µM [activator, partial curve]"
19,COc1ccccc1-n1cc(-c2ccc([N+](=O)[O-])cc2)[nH]c1=S,"inconclusive: 7.3 µM [activator, partial curve, poor fit]"
20,Cc1cc(C)c2c(-n3cccc3)c(NC(=O)OC(C)C)sc2n1,"inconclusive: 23.1 µM [inhibitor, partial curve]"
21,Cc1oc2c(c1C(=O)Nc1cccc(C(=O)O)c1)CCCC2,"inconclusive: 20.6 µM [activator, single point]"
22,O=[N+]([O-])c1ccc(/C=N/Nc2ccc3ccccc3c2)o1,"inconclusive: 14.6 µM [activator, partial curve]"
23,CCOC(=O)c1c(C)c(C(=O)Nc2cc(OC)ccc2OC)c(C)n1CC,"inconclusive: 25.9 µM [inhibitor, single point]"

row,SMILES,Potency
1,Cc1nc(COC(=O)c2cc(O)c3ccccc3c2O)cs1,inactive
2,O=C(CSc1ncn[nH]1)Nc1ccnc2ccccc12,"inconclusive: 10.3 µM [inhibitor, partial curve]"
3,FC(F)(F)c1nc(Oc2ccccc2)c2ccccc2n1,"inconclusive: 29.1 µM [activator, partial curve, poor fit]"
4,O=C(CN(Cc1ccccc1)S(=O)(=O)c1ccccc1)N/N=C/c1ccccc1[N+](=O)[O-],"inconclusive: 29.1 µM [inhibitor, single point]"
5,COCCNC(=O)c1cc2c(-c3ccc(Cl)cc3)nn(C)c2s1,"inconclusive: 29.1 µM [inhibitor, partial curve]"
6,CCOCCCN(C(=O)c1snc(C(N)=O)c1N)C(C(=O)NCCC(C)C)c1ccc(F)cc1 (stereo not drawn),"inconclusive: 13 µM [inhibitor, single point]"
7,COC(=O)c1sc(-c2ccccc2)cc1NC(=O)c1ccc(OC)cc1,"inconclusive: 29.1 µM [inhibitor, single point]"
8,CCOC(=O)Nc1cccc(NC(=O)c2cc(OC)cc(OC)c2)c1,active: 14.6 µM
9,Cc1ccc(S(=O)(=O)NC2CC(C)(C)NC(C)(C)C2)cc1,inactive
10,CC1=NOC(=O)/C1=C\c1ccc(-c2ccc(Cl)cc2Cl)o1,inactive
11,COc1ccc(OC)c2c1sc(=NC(=O)c1ccco1)n2C,inactive
12,COc1cccc(Nc2nc(N)c([N+](=O)[O-])c(N3CCOCC3)n2)c1,active: 23.1 µM
13,CSc1nc2ccc3nc(NC(=O)C4COc5ccccc5O4)sc3c2s1 (stereo not drawn),"inconclusive: 18.4 µM [inhibitor, single point]"
14,COc1ccc(OC)c(NC(=O)CSc2nc3c(c(=O)n(C)c(=O)n3C)n2C)c1,"inconclusive: 5.62 µM [inhibitor, partial curve, poor fit]"
15,COc1ccc(OC)c(Cc2nnc(CCC(=O)N3CCCCC3)o2)c1,"inconclusive: 23.1 µM [activator, partial curve]"
16,COc1ccc2[nH]c(O)c(N=NC(=N)N)c2c1,"inconclusive: 16.4 µM [activator, partial curve, poor fit]"
17,COc1ccc(/C=C/C(=O)OCC(=O)Nc2cc(C(N)=O)cc(C(N)=O)c2)cc1,"inconclusive: 16.4 µM [inhibitor, single point]"
18,CCOC(=O)CSc1nc(N)c2c3c(sc2n1)CCCC3,"inconclusive: 16.4 µM [activator, single point]"
19,CC(C)(C)c1ccc(NC(=S)NCCc2ccccn2)cc1,"inconclusive: 29.1 µM [inhibitor, single point]"
20,COc1ccc(N2CCN(C(=O)COC(=O)c3ccc(Cl)nc3)CC2)cc1,"inconclusive: 0.0065 µM [inhibitor, full curve, poor fit]"
21,Cc1cc(SCC(=O)N(C)CC(=O)Nc2ccc(F)cc2)nc2ccccc12,"inconclusive: 18.4 µM [inhibitor, partial curve, poor fit]"
22,CN1CCC(=NNC(=O)CN(c2cccc([N+](=O)[O-])c2)S(=O)(=O)c2ccccc2)CC1,inactive

# Pulled one by one from the list above:
row,SMILES,Potency
20,COc1ccc(N2CCN(C(=O)COC(=O)c3ccc(Cl)nc3)CC2)cc1,"inconclusive: 0.0065 µM [inhibitor, full curve, poor fit]"
22,CN1CCC(=NNC(=O)CN(c2cccc([N+](=O)[O-])c2)S(=O)(=O)c2ccccc2)CC1,inactive
13,CSc1nc2ccc3nc(NC(=O)C4COc5ccccc5O4)sc3c2s1 (stereo not drawn),"inconclusive: 18.4 µM [inhibitor, single point]"
2,O=C(CSc1ncn[nH]1)Nc1ccnc2ccccc12,"inconclusive: 10.3 µM [inhibitor, partial curve]"
